Measurements as given in US20030199526A1, “Pyrimidine-based compounds useful as GSK-3 inhibitors” (priority 2001, published 2003).
Where a name gives a salt, the structure may show the parent alone. Some entries share one result that the patent states for a list of compounds. Some compounds share one range, which may span the group rather than tell each member. Each block holds one compound with its values, some of them ahead of it.

By UniProt entry, the sequences of proteins in these tests, tags left out.
UniProt P49841, whole entry, species assumed: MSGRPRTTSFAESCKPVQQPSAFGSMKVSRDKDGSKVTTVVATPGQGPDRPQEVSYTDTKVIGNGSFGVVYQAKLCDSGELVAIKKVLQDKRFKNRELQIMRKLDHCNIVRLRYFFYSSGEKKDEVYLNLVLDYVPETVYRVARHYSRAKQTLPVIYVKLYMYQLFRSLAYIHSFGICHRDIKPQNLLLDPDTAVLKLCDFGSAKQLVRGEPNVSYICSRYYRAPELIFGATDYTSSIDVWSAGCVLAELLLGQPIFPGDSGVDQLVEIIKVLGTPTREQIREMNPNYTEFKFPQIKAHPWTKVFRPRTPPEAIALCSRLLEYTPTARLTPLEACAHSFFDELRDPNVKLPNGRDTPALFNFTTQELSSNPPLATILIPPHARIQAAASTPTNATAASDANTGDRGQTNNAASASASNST

Biological target: T1, GSK-3β (AA 1-420) (Homo sapiens, UniProt P49841)
T1 construct: GSK-3β (AA 1-420)
Test: Ki determination for the inhibition of GSK-3 (coupled enzyme system)
Format: biochemical
Conditions: 20 μM ATP, 300 μM peptide, 20 nM GSK-3β, 30° C.
Procedure: Compounds were screened for their ability to inhibit GSK-3β (AA 1-420) activity using a standard coupled enzyme system [Fox et al. Protein Sci. 7, 2249 (1998)]. Reactions were carried out in a solution containing 100 mM HEPES (pH 7.5), 10 mM MgCl2, 25 mM NaCl, 300 μM NADH, 1 mM DTT and 1.5% DMSO. Final substrate concentrations in the assay were 20 μM ATP (Sigma Chemicals, St Louis, Mo.) and 300 μM peptide (American Peptide, Sunnyvale, Calif.). Reactions were carried out at 30° C. and 20 nM GSK-3β. Final concentrations of the components of the coupled enzyme system were 2.5 mM phosphoenolpyruvate, 300 μM NADH, 30 μg/ml pyruvate kinase and 10 μg/ml lactate dehydrogenase.
An assay stock buffer solution was prepared containing all of the reagents listed above with the exception of ATP and the test compound of interest. The assay stock buffer solution (175 μl) was incubated in a 96 well plate with 5 μl of the test compound of interest at final concentrations spanning 0.002 μM to 30 μM at 30° C. for 10 min. Typically, a 12 point titration was conducted by preparing serial dilutions (from 10 mM compound stocks) with DMSO of the test compounds in daughter plates. The reaction was initiated by the addition of 20 μl of ATP (final concentration 20 μM). Rates of reaction were obtained using a Molecular Devices Spectramax plate reader (Sunnyvale, Calif.) over 10 min at 30° C. The Ki values were determined from the rate data as a function of inhibitor concentration.

SMILES: COc1ccc(-c2nc(NCCNc3ccc(C#N)cn3)c3ccccc3n2)cc1 [Compound I-3, 6-{2-[2-(4-Methoxy-phenyl)-quinazolin-4-ylamino]-ethylamino}-nicotinonitrile]
Ki: 0.1 to 1 µM

SMILES: FC(F)(F)c1ccccc1-c1nc(NCCNc2n[nH]c3ccccc23)c2ccccc2n1 [Compound I-10, N-(1H-Indazol-3-yl)-N′-[2-(2-trifluoromethyl-phenyl)-quinazolin-4-yl]-ethane-1,2-diamine, trifluoro-acetic acid salt]
Ki: 0.1 to 1 µM

SMILES: N#Cc1ccc(NCCNc2nc(-c3cccc(C#N)c3)nc3ccccc23)nc1 [Compound I-29, 6-{2-[2-(3-Cyano-phenyl)-quinazolin-4-ylamino]-ethylamino}-nicotinonitrile]
Ki: 0.1 to 1 µM

SMILES: N#Cc1ccc(NCCNc2nc(-c3ccsc3)nc3ccccc23)nc1 [Compound I-32, 6-[2-(2-Thiophen-3-yl-quinazolin-4-ylamino)-ethylamino]-nicotinonitrile]
Ki: 0.1 to 1 µM

SMILES: N#Cc1ccc(NCCNc2nc(-c3ccccc3C(F)(F)F)nc3c2CCCC3)nc1 [Compound I-105, 6-{2-[2-(2-Trifluoromethyl-phenyl)-5,6,7,8-tetrahydro-quinazolin-4-ylamino]-ethylamino}-nicotinonitrile]
Ki: 0.1 to 1 µM

SMILES: N#Cc1ccc(NCCNc2nc(-c3ccccc3C(F)(F)F)nc3c2CCN(Cc2ccccc2)C3)nc1 [Compound I-113, 6-{2-[7-Benzyl-2-(2-trifluoromethyl-phenyl)-5,6,7,8-tetrahydro-pyrido[3,4-d]pyrimidin-4-ylamino]-ethylamino}-nicotinonitrile]
Ki: 0.1 to 1 µM

Now from value to compound:

Ki: 0.1 to 1 µM
SMILES: Cc1cnc(-c2ccc(Cl)cc2)nc1NCCNc1ccc(C#N)cn1 [Compound I-158, 6-{2-[2-(4-Chloro-phenyl)-5-methyl-pyrimidin-4-ylamino]-ethylamino}-nicotinonitrile]

Ki: 0.1 to 1 µM
SMILES: N#Cc1ccc(NCCNc2nc(-c3ccccc3C#N)nc3ccccc23)nc1 [Compound I-187, 6-{2-[2-(2-Cyano-phenyl)-quinazolin-4-ylamino]-ethylamino}-nicotinonitrile]

Ki: 0.1 to 1 µM
SMILES: N#Cc1ccc(NCCNc2nc(-c3cccs3)nc3ccccc23)nc1 [Compound I-192, 6-[2-(2-Thiophen-2-yl-quinazolin-4-ylamino)-ethylamino]-nicotinonitrile]

Ki: 0.1 to 1 µM
SMILES: N#Cc1ccc(NCCNc2nc(-c3cccc(Cl)c3Cl)nc3ccccc23)nc1 [Compound I-193, 6-{2-[2-(2,3-Dichloro-phenyl)-quinazolin-4-ylamino]-ethylamino}-nicotinonitrile]

Ki: 0.1 to 1 µM
SMILES: N#Cc1ccc(NCCNc2nc(-c3cc(Cl)ccc3Cl)nc3ccccc23)nc1 [Compound I-194, 6-{2-[2-(2,5-Dichloro-phenyl)-quinazolin-4-ylamino]-ethylamino}-nicotinonitrile]

Ki: 0.1 to 1 µM
SMILES: Cc1cc(NCCNc2ccc(C#N)cn2)nc(-c2ccccc2C(F)(F)F)n1 [Compound I-196, 6-{2-[6-Methyl-2-(2-trifluoromethyl-phenyl)-pyrimidin-4-ylamino]-ethylamino}-nicotinonitrile]

Ki: 0.1 to 1 µM
SMILES: N#Cc1ccc(NCCNc2cc(-c3ccccc3)nc(-c3ccccc3C(F)(F)F)n2)nc1 [Compound I-199, 6-{2-[6-Phenyl-2-(2-trifluoromethyl-phenyl)-pyrimidin-4-ylamino]-ethylamino}-nicotinonitrile]

Ki: 0.1 to 1 µM
SMILES: N#Cc1ccc(NCCNc2cc(C(F)(F)F)nc(-c3ccccc3C(F)(F)F)n2)nc1 [Compound I-202, 6-{2-[6-Trifluoromethyl-2-(2-trifluoromethyl-phenyl)-pyrimidin-4-ylamino]-ethylamino}-nicotinonitrile]

Ki: 0.1 to 1 µM
SMILES: COc1ccccc1-c1cc(NCCNc2ccc(C#N)cn2)nc(-c2ccccc2C(F)(F)F)n1 [Compound I-203, 6-{2-[6-(2-Methoxy-phenyl)-2-(2-trifluoromethyl-phenyl)-pyrimidin-4-ylamino]-ethylamino}-nicotinonitrile]
